{"source": "PubChem BioAssay AID1159578 (Peter MacCallum Cancer Centre, 2015)", "purpose": "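siRNA pools altering how lymphatic endothelial cells close a scratch wound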 (primary screen)", "cell system": "human lymphatic endothelial cells", "knock-down reagent": "siRNA pool against human genes, 40 nM", "duration": "48 h after transfection", "measured": "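High-content imaging of dye-stained cells in a scratch assay measures filled wound area and nuclei per well; duplicate means given as ratio to mock and robust z-score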", "reading the numbers": "migration robust z-score: higher = faster migration into the scratch; nuclei per well: higher = more cells in the well", "active means": "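Pools averaging fewer than 3300 nuclei are never called; remaining pools count as changed when migration robust z lies outside -2 to 2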", "meaning of the calls": "active = migration changed; inactive = no migration change, or too few cells", "note": "This is a random part of about 18,000 reagents. About 1,030 of all reagents (5.7%) were called active. 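Inactive calls also include pools with fewer than 3300 nuclei, whose migration was not assessed.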 Raw values are not corrected between plates. Unmarked entries are inactive. Not all columns of the deposit are shown."}
{"gene symbol": "CIROZ", "migration robust z-score": 1.85, "migration class with cell-count check": "migration z between -2 and 2; enough cells", "nuclei per well, duplicate mean": 6990}
{"gene symbol": "C10orf62", "migration robust z-score": -1.43, "migration class with cell-count check": "migration z between -2 and 2; enough cells", "nuclei per well, duplicate mean": 5079}
{"gene symbol": "ZNF460", "migration robust z-score": -1.54, "migration class with cell-count check": "migration z between -2 and 2; enough cells", "nuclei per well, duplicate mean": 7076}
{"gene symbol": "CARD6", "migration robust z-score": 1.02, "migration class with cell-count check": "migration z between -2 and 2; enough cells", "nuclei per well, duplicate mean": 6386}
{"gene symbol": "SLC25A6", "migration robust z-score": -0.08, "migration class with cell-count check": "migration z between -2 and 2; enough cells", "nuclei per well, duplicate mean": 5542}
{"gene symbol": "NKX3-1", "migration robust z-score": 1.19, "migration class with cell-count check": "migration z between -2 and 2; enough cells", "nuclei per well, duplicate mean": 5565}
{"gene symbol": "P2RX2", "migration robust z-score": "-3.37 (active)", "migration class with cell-count check": "migration z below -2; enough cells", "nuclei per well, duplicate mean": 3630}
{"gene symbol": "PCDHGA4", "migration robust z-score": -0.09, "migration class with cell-count check": "migration z between -2 and 2; enough cells", "nuclei per well, duplicate mean": 5780}
{"gene symbol": "AJUBA", "migration robust z-score": -0.6, "migration class with cell-count check": "migration z between -2 and 2; enough cells", "nuclei per well, duplicate mean": 6246}
{"gene symbol": "ZNF662", "migration robust z-score": -0.2, "migration class with cell-count check": "migration z between -2 and 2; enough cells", "nuclei per well, duplicate mean": 6538}
{"gene symbol": "GPATCH4", "migration robust z-score": "3.5 (active)", "migration class with cell-count check": "migration z above 2; enough cells", "nuclei per well, duplicate mean": 5903}
{"gene symbol": "ZNF175", "migration robust z-score": 0.62, "migration class with cell-count check": "migration z between -2 and 2; enough cells", "nuclei per well, duplicate mean": 6705}
{"gene symbol": "MRPS28", "migration robust z-score": 0.84, "migration class with cell-count check": "migration z between -2 and 2; enough cells", "nuclei per well, duplicate mean": 5734}
{"gene symbol": "WHRN", "migration robust z-score": 1.06, "migration class with cell-count check": "migration z between -2 and 2; enough cells", "nuclei per well, duplicate mean": 5638}
{"gene symbol": "MCHR2", "migration robust z-score": -0.18, "migration class with cell-count check": "migration z between -2 and 2; enough cells", "nuclei per well, duplicate mean": 5118}
{"gene symbol": "GABRG3", "migration robust z-score": 0.13, "migration class with cell-count check": "migration z between -2 and 2; enough cells", "nuclei per well, duplicate mean": 3724}
{"gene symbol": "CEBPA", "migration robust z-score": -0.57, "migration class with cell-count check": "migration z between -2 and 2; enough cells", "nuclei per well, duplicate mean": 5658}
{"gene symbol": "LPAL2", "migration robust z-score": -2.34, "migration class with cell-count check": "under 3300 nuclei; migration not judged", "nuclei per well, duplicate mean": 3288}
{"gene symbol": "ITGB5", "migration robust z-score": -0.18, "migration class with cell-count check": "migration z between -2 and 2; enough cells", "nuclei per well, duplicate mean": 5890}
{"gene symbol": "TBX1", "migration robust z-score": 0.5, "migration class with cell-count check": "migration z between -2 and 2; enough cells", "nuclei per well, duplicate mean": 5246}
{"gene symbol": "CCT3", "migration robust z-score": 0.15, "migration class with cell-count check": "migration z between -2 and 2; enough cells", "nuclei per well, duplicate mean": 7000}

Ordered by “migration robust z-score” (high to low): some entries from above
{"gene symbol": "ITGB5", "migration robust z-score": -0.18, "migration class with cell-count check": "migration z between -2 and 2; enough cells", "nuclei per well, duplicate mean": 5890}
{"gene symbol": "CEBPA", "migration robust z-score": -0.57, "migration class with cell-count check": "migration z between -2 and 2; enough cells", "nuclei per well, duplicate mean": 5658}
{"gene symbol": "LPAL2", "migration robust z-score": -2.34, "migration class with cell-count check": "under 3300 nuclei; migration not judged", "nuclei per well, duplicate mean": 3288}
